Laboratory results taken from the supplement of paper PMC7877785.
± gives the uncertainty stated by the source. The uncertainty is large for many entries.

Assay: self-splicing fitness, log relative to wild type (ln ratio); higher = more splicing; Tetrahymena group I intron in knt gene, E. coli kanamycin selection, DiMSum; sequences stand for … in CUCUCU…GGAGGGAAAAGUUAUCAGGCAUGCACCUGGUAGCUAGUCUUUAAACCAAUAGAUUGCAUCGGUUUAAAAGGCAAGACCGUCAAAUUGCGGGAAAGGGGUCAACAGCCGUUCAGUACCAAGUCUCAGGGGAAACUUUGAGAUGGCCUUGCAAAGGGUAUGGUAAUAAGCUGACGGACAUGGUCCUAACCACGCAGCCAAGUCCUAAGUCAACAGAUCUUCUGUUGAUAUGGAUGCAGUUCACAGACUAAAUGUCGGUCGGGGAAGAUGUAUUCUUCUCAUAAGAUAUAGUCGGACCUCUCCUUAAUGGGAGCUAGCGGAUGAAGUGAUGCAACACUGGAGCCGCUGGGAACUAAUUUGUAUGCGAAAGUAUAUUGAUUAGUUUUGGAGUACUCGUGGUCG
Summary of the method: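 Colonies from six replicate transformations of E. coli BL21(DE3) were pooled and amplicon-sequenced on an Illumina HiSeq 2500. The library placed an intron with all eight P1ex-region nucleotides randomised inside the knt kanamycin-resistance gene on pET-22b(+), and cells grew overnight at 37°C or 30°C on LB agar with or without 25 μg/mL kanamycin (plus 100 μg/mL carbenicillin, 50 μM IPTG, 0.2% rhamnose). Fitness is the DiMSum error-weighted combination of wild-type-normalised replicate fold changes, kanamycin versus none.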

| Sequence | self-splicing fitness (ln) (30 °C) | self-splicing fitness (ln) (37 °C) |
| --- | --- | --- |
| CAGCAGCAAUAUUACGGAAG | -0.307 ± 0.054 | -0.29 ± 0.068 |
| GUCCAGCAAUAUUACGCAGC | -0.998 ± 0.17 | 0.198 ± 0.14 |
| AAAGAGCAAUAUUACGGGUG | -3.95 ± 0.21 | -1.88 ± 0.19 |
| UAAGAGCAAUAUUACGCACA | -2.33 ± 0.87 |  |
| UGGGAGCAAUAUUACGAAGC | -4.46 ± 0.6 | -2.03 ± 0.81 |
| GUUUAGCAAUAUUACGCGAC |  | -2.22 ± 0.68 |
| UAGCAGCAAUAUUACGCUCC |  | -0.882 ± 0.6 |
| CUGGAGCAAUAUUACGCUCU | -2.84 ± 0.75 | -2.15 ± 0.51 |
| UUGUAGCAAUAUUACGCACC |  | -1.16 ± 0.9 |
| UAGUAGCAAUAUUACGCAGC |  | -2.5 ± 0.5 |
| UAACAGCAAUAUUACGGUCC | -2.94 ± 0.15 | -1.99 ± 0.19 |
| UCGGAGCAAUAUUACGGCUA | -1.8 ± 0.57 |  |
| GUUAAGCAAUAUUACGCGCG | -0.983 ± 0.09 | 0.0623 ± 0.14 |
| ACAGAGCAAUAUUACGGCCC |  | -1.61 ± 0.59 |
| GGUAAGCAAUAUUACGCGCU | -2.52 ± 0.68 | -1.11 ± 0.54 |
| UUUUAGCAAUAUUACGGAGC | -2.24 ± 0.38 | -2.37 ± 0.49 |
| UGGUAGCAAUAUUACGGAGC | -4.04 ± 1.1 |  |
| GUACAGCAAUAUUACGCAUC | -3.74 ± 0.23 | -1.36 ± 0.19 |
| GGCUAGCAAUAUUACGAUAG | -4.13 ± 0.59 |  |
| CUGGAGCAAUAUUACGAAUU | -3.48 ± 0.56 |  |
| UUUAAGCAAUAUUACGUAUC | -4.44 ± 0.59 |  |
| CGUGAGCAAUAUUACGAACG |  | -1.45 ± 0.51 |
| GGUUAGCAAUAUUACGGGGC | -3.32 ± 0.6 |  |
| AAUUAGCAAUAUUACGGACC | -2.03 ± 0.51 |  |

Single values from the list.
Entry for UAGCAGCAAUAUUACGCUCC under self-splicing fitness (ln) (37 °C): -0.882 ± 0.6
Entry for GUACAGCAAUAUUACGCAUC under self-splicing fitness (ln) (37 °C): -1.36 ± 0.19
